The target of the test is YPET::LoxP::3xFlag::HPO-11 (C. elegans). Put plainly: affinity purification with mass spectrometry.

These are yes or no findings as the source states them, for the method shown. Binding seen in cells or lysates may run through a third protein. A yes stands for co-enrichment or nearness to the bait. Other partners may have been found.

B1: SMG-2 (protein, UniProt O76512 1-1069)
chain: MDDSDDEYSRSHGETLTFVDPEDDGVSIGNTQDSQFAYEQFSVPTQSSQATDLLPGGTDGTTNDLPFHDVEDDESDSEKSLTEEQHEQKLPEHACRYCGISDPLCVAKCTVCRKWFCNSNDGTSGGHIVHHMVRSQHKEAYTHKDSPCGDTQLECYRCGSKNVFNLGFIPGKKDQVVVIICRTPCASIAFQNDDNWSPEDWKSVIAEKQLLSWIVNVPSEEQVARARKITATQAVRMEELWRDHPEATVDDLNKPGLDREPDHVQLRYVDAHHYSKVFRPLVAIEAEYDRRVKESASQAVGTVRWEQGLRQSVLAFFHLPQFADGVMKLAKGDELRLKHSQTVDGSEWTKIGSVFKIPDNHGDEVGIEIRGAVDKSVMESRIMFTVDVVWNATTFERQYKALAALLNDSKAISPYLYQKLLGHPAEEMMLKFDLPRRLSVAGLPELNSSQMQAVKQVLTRPLSLIQGPPGTGKTVVSATIVYHLVQKTEGNVLVCSPSNIAVDHLAEKIHKTGLKVVRLCARSREHSETTVPYLTLQHQLKVMGGAELQKLIQLKDEAGELEFKDDLRYMQLKRVKEHELLAAADVICCTCSSAADARLSKIRTRTVLIDESTQATEPEILVSIMRGVRQLVLVGDHCQLGPVVICKKAAIAGLSQSLFERLVLLGIRPFRLQVQYRMHPVLSEFPSNVFYDGSLQNGVTENDRHMTGVDWHWPKPNKPAFFWHCSGSEELSASGTSFLNRTEAANVEKLVSKLIKAGVQPHQIGVITSYEGQRSFIVNYMHTQGTLNSKLYENVEIASVDAFQGREKDYIIVTCVRSNDILGIGFLSDPRRLNVAITRAKYGLVLVGNAKVLARHDLWHELINHYKSKEMLYEGPINALKPLNLALPKATIRTKNNIAGNANRFGIKRMQYTFNEYKSNDPSQPRLPPTYSNSQNLLSMSKLAQTFNKNVPIPAHMMDPNVYAAARNQKDRRRGDQRRPPPQAEAAMDLSQGMMSQQSQQYPPQGASSQSQYLLDGASSLSGWSQSQTTTTTTRHHHHRQNRNSQQQMSQDMDDIQQKMDDLLFSQDC
For B1, the binding entry is “binds”.

B2: CPSF-1 (protein, UniProt Q9N4C2 1-1454)
chain: MYGYLRETDDSTAINFSAYGKFLPGENTGFQLLTIGAKFIRIFRVNPYVLKEPGEDNEEWQQKTKLECMFSCRLLNKCHSIAVARVPQLPDQDSILMTFDDAKLSIVSINEKERNMQTISLHAFENEYLRDGFINHFQPPLVRSDPSNRCAACLVYGKHIAILPFHENSKRIHSYVIPLKQIDPRLDNIADMVFLDGYYEPTILFLYEPIQTTPGRACVRYDTMCIMGVSVNIVDRQFAVVWQTANLPMDCSQLLPIPKPLGGALVFGSNTVVYLNQAVPPCGLVLNSCYDGFTKFPLKDLKHLKMTLDCSTSVYMEDGRIAVGSRDGDLFLLRLMTSSGGGTVKSLEFSKVYETSIAYSLTVCAPGHLFVGSRLGDSQLLEYTLLKTTRDCAVKRLKIDNKDPAAAEIELDEDDMELYGGAIEEQQNDDDEQIDESLQFRELDRLRNVGPVKSMCVGRPNYMSNDLVDAKRRDPVFDLVTASGHGKNGALCVHQRSLRPEIITSSLLEGAEQLWAVGRKENESHKYLIVSRVRSTLILELGEELVELEEQLFVTGEPTVAAGELSQGALAVQVTSTCIALVTDGQQMQEVHIDSNFPVIQASIVDPYVALLTQNGRLLLYELVMEPYVQLREVDISATSFATWHATAQNLTQLTSISIYADASEIMKFAAAEKSMGGGGGGDGEVSTAENAMMKKEQHEEAILLHGEDDDFLYGDEDETIMEQNFPVENGEATIKQSNTRKRKRLGHDAIQSSRGGEQSDAIDPTRTFSSISHWLIVSHENGRLSIHSLPEMEVVYQIGRFSNVPELLVDLTVEEEEKERKAKAQQAAKEASVPTDEAEQLNTEMKQLCERVLEAQIVGMGINQAHPILMAIVDEQVVLYEMFSSSNPIPGHLGISFRKLPHFICLRTSSHLNSDGKRAPFEMKINNGKRFSLIHPFERVSSVNNGVMIVGAVPTLLVYGAWGGMQTHQMTVDGPIKAFTPFNNENVLHGIVYMTQHKSELRIARMHPDFDYEMPYPVKKIEVGRTIHHVRYLMNSDVYAVVSSIPKPSNKIWVVMNDDKQEEIHEKDENFVLPAPPKYTLNLFSSQDWAAVPNTEISFEDMEAVTACEDVALKSESTISGLETLLAMGTVNNYGEEVLVRGRIILCEVIEVVPEPDQPTSNRKIKVLFDKEQKGPVTGLCAINGLLLCGMGQKVFIWQFKDNDLMGISFLDMHYYVYQLHSLRTIAIACDARESMSLIRFQEDNKAMSIASRDDRKCAQPPMASQLVVDGAHVGFLLSDETGNITMFNYAPEAPESNGGERLTVRAAINIGTNINAFVRLRGHTSLLQLNNEDEKEAIEQRMTTVFASLDGSFGFVRPLTEKSYRRLHFLQTFIGSVTPQIAGLHIKGSRSAKPSQPIVNGRNARNLIDGDVVEQYLHLSLYDKTDLARRLGVGRYHIIDDLMQLRRMAFYY
Regarding B2, the binding entry is listed as “binds”.

Values taken from doi:10.1101/2022.09.04.506508.
